A short description of this data set: Isothermal titration calorimetry of Cu(II) binding to PAI-1. Conditions: 10 °C; for ΔG obs / ΔH obs / −TΔS obs: one-site model. Here is the method:
Isothermal titration calorimetry (ITC) was used to determine the thermodynamic parameters associated with Cu(II) interactions with PAI-1. Active and latent forms of wild-type and variants of PAI-1 were dialyzed into 100 mM MOPS, 250 mM (NH4)2SO4 at 10 °C for 2 h. Because of the relative instability of the H2AH3A variant of PAI-1, our studies on H2AH3A PAI-1 utilized a variant that contained an additional mutation, W175F. […] Residue 175 is not proximal to the N terminus and is not involved in metal ion coordination or its subsequent effects on PAI-1 stability. Copper solutions were prepared by diluting CuSO4 into the matched dialysate buffer. The copper stock concentration was verified using atomic absorbance spectroscopy, and the pH corrected to 7.4 at 10 °C using NaOH. Twenty micromolar PAI-1 (2.2 mL total volume) and copper solution (4 mL) were degassed under vacuum for 10 min at 5 °C prior to loading into the (Malvern) MicroCal VP-ITC. The PAI-1 solution was loaded into the ITC cell (1.394 mL), and the copper solution was loaded into the ITC syringe. The reference and experimental ITC cells were equilibrated to 10 °C prior to the start of the experiment. After a preliminary injection of 2 µL, each additional injection consisted of a 4 µL injection at 120 or 240 s intervals. Experiments were performed at least in duplicate. Control experiments measuring dilution heats were performed in which the copper solution was injected into buffer. The data were baseline corrected using NITPIC software (University of Texas, Southwestern), and fit to either a single-site or two-site non-symmetric binding model in SEDPHAT (National Institutes of Health). The data and fits were represented using GUSSI software (University of Texas, Southwestern).
(Isothermal titration calorimetry measures the heat released or taken up as one component is titrated into another.)

In the case of “plasminogen activator inhibitor-1 [Wild-type]”, the “n value (stoichiometry of Cu(II) binding transition)” value (Cu(II) up to 650–800 μM) worked out at 1.2. Under “[Cu(II)] 650 µM”, the ΔG obs is −10.2 (±0.3) kcal/mol, the ΔH obs is −15.9 (±0.3) kcal/mol and the “−TΔS obs” value is reported as 5.7 (±0.3) kcal/mol. For the same substance, where the note is “[Cu(II)] 700 µM”, the ΔG obs is given as −10.0 (±0.7) kcal/mol, the ΔH obs is recorded as −16.4 (±0.6) kcal/mol and the “−TΔS obs” value is 6.3 (±0.7) kcal/mol. Under “[Cu(II)] 750 µM”, the ΔG obs is −9.9 (±0.4) kcal/mol and the ΔH obs is −15.9 (±1.2) kcal/mol. Further, under “[Cu(II)] 800 µM”, the ΔG obs was −9.8 (±0.2) kcal/mol, the ΔH obs is on record as −16.4 (±0.6) kcal/mol and the “−TΔS obs” value is on record as 6.5 (±0.6) kcal/mol. Where the note is “single-site model”, the “average ΔG obs” value was -10.0 kcal/mol and the “average −TΔS obs” value was determined as 5.9 kcal/mol. Besides, the “average ΔH obs” value (single-site model, average of replicate data) was -16.2 kcal/mol.

For the origin of these results see paper PMC5613068, “Resolving distinct molecular origins for copper effects on PAI-1” (Journal of Biological Inorganic Chemistry, 2017).
